These results are taken from the supplement of paper PMC10338343.

± gives the standard deviation. The list shows a part of the results, in another mix than the full data. The uncertainty is large for many entries.
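Note: 1 nM active piRISC with 0.1 nM target library at 33 °C single turnover.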

This test deals with MIWI (PIWIL1) piRISC loaded with piRNA #1 (30 nt). As to the kind of experiment: pre-steady-state target cleavage rate (min^-1); MIWI and MILI are mouse PIWI proteins and EfPiwi is from a freshwater sponge; tags in brackets are library labels; higher = faster piRNA-guided slicing of the target. Particulars: guide: piRNA #1 5'p-UGAGGUAGUAGGUUGUAUAGUAUCCAGAGG; auxiliary factor: 500 nM mouse GTSF1. A digest of the protocol: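 For Cleave-'n-Seq, a transcribed, DNA-blocked target RNA library […] met 1 nM active affinity-purified piRISC with one synthetic guide at 33 °C for 0–8 or 0–960 min in HEPES–potassium acetate buffer, with or without 500 nM GTSF1 partner protein. Uncleaved targets were sequenced and normalised to depth and weakly complementary targets, with three trials pooled and k3 capped at 0.0001 min^-1. A burst-and-steady-state fit supplied the pre-steady-state cleavage rate.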
Consider GGAGACCUAUGAAUGCAACCUACUACCUCA, for which the “pre-steady-state target cleavage rate” value is 0.000803 ± 0.0049.
Take GGACUGGAUACUAUACAACCUAUACCUCA: the “pre-steady-state target cleavage rate” value turned out to be 0.00112 ± 0.0077.
CCUCUGGAUACUUACAACCUACUACCUCA: the “pre-steady-state target cleavage rate” value turned out to be 1.3 ± 0.12.
The result for GGACUGGAUACUAUACAACCUACAACGUCA reads 0.00117 ± 0.004; that for GGAGAGGAUACUAUACAACACUACUACCUCA, 0.000142 ± 0.028.
For the sequence GGAGACCUAUGAUAACAACCUACUACACUCA, the “pre-steady-state target cleavage rate” value was 0.00193 ± 0.0034.
The result for GGAGAGGAUACUAUUCAACCUACUACCUCA reads 1.23 ± 0.062; that for GGACUGGAUACGAUACAACCUACUACCUCA, 1.64 ± 0.1; that for GGAGACGAUACUAUACAACCUCUACCUCA, 0.00199 ± 0.0041.
The result for GGAGACCAUACUAUACAACCUACUACCUACA reads 1.77 ± 0.18; that for GGAGACCUAUGAAUACAACCUACUACCGUCA, 0.00189 ± 0.0032.
For the sequence GGACUUGGAUACUAUACAACCUACUACCUCA, the “pre-steady-state target cleavage rate” value was 1.78 ± 0.11.
Turning to CCUCCGGAUACUAUACAACCUACUACCUCA, the “pre-steady-state target cleavage rate” value was found to be 2.08 ± 0.14.
With GGAGACCUAUGAUAACAACCUACUGACCUCA the figure was 0.000987 ± 0.0055; with GGACUGGAUACUAUACAACCUACUUCCACA, 0.000349 ± 0.014; with GGAGACCUAUGAUAACAACCUACUACCGUCA, 0.000873 ± 0.0056.
With GGAGACCUAUGAUAUCAACCUACUAACCUCA the figure was 0.000291 ± 0.0062; with GGAGACCUAUGAUAUGUAUCCUACUACCUCA, 0.000463 ± 0.0082; with GCUCUGGAUACUAUACAACCUACUAUCUCA, 2.32 ± 0.24.
GGAGACCUAUCUAAACAACGUACUACCUCA: the “pre-steady-state target cleavage rate” value came out at 0.0018 ± 0.0046.
As to GGACUGGAUACUAUACAACCUACUAGGUCA, the “pre-steady-state target cleavage rate” value was determined as 0.000363 ± 0.0092.
As for GGAGACGAUACUAUACAACAUACUACCUCA, the “pre-steady-state target cleavage rate” value came to 1.16 ± 0.077.
For GGAGACCUAUGAAUACUACCUACUAGCUCA, the “pre-steady-state target cleavage rate” value amounted to 0.000134 ± 0.013.
Consider GCUCAGGAUACUUUACAACCUACUACCUCA, for which the “pre-steady-state target cleavage rate” value amounted to 1.81 ± 0.11.
Take GGAGACCUAUGAUAACAACCUACUCCUCA: the “pre-steady-state target cleavage rate” value stood at 0.000142 ± 0.012.
With GCUCUGGAUACUAUACAACGUACUUCCUCA the figure was 0.486 ± 0.045; with GGCCUGGAUACUAUACAACCUACUACCUCA, 1.74 ± 0.098; with GCACUGGUUACUAUACAACCUACUACCUCA, 1.84 ± 0.11.
With CCUCUGGAUACUAUACAACGAUCUACCUCA the figure was 0.00132 ± 0.0091; with GGAGACCUAUGAUAUGUUCCUCUACCUCA, 0.000177 ± 0.011.
For GGAGACCUAUGAUAUGUUGCUCUACCUCA, the “pre-steady-state target cleavage rate” value was 0.000139 ± 0.018.
The result for CCUCUGGAUACUAUAGAACCUACAACCUCA reads 0.0249 ± 0.007; that for GGAGACCUAUGUAUACAACCUAGAUCCUCA, 0.000813 ± 0.0038; that for “GCUCUGGAUACUAUACAACCAUGAUGGAGA [g11:g29:cont:t1A]”, 0.00246 ± 0.0052.
For the sequence GGAGACCUAUGAAUACAAGCUACUACCUGA, the “pre-steady-state target cleavage rate” value was 0.000321 ± 0.0069.
The result for GGAGACCUAUGAUAACAACCUACUACCUUCA reads 0.000351 ± 0.0057.
With GCUCUGCAUACUAUACAACCUACUACCACA the figure was 1.98 ± 0.18.
The result for GGUCUAGGAUACUAUACAACCUACUACCUCA reads 1.83 ± 0.1; that for GGAGACCUAUGAUUACAACCUACUACCUA, 0.00146 ± 0.0035; that for GGAGACCUAUGAUUACUACCUACUUCCUCA, 0.000205 ± 0.012.
